Results are given in words; binding and its absence hold for the method and conditions named. In cells and extracts the contact can be indirect. Tags and fused reporters may be left off the sequences shown.
Target: Flag-Dmrta2 mutant lacking the DM domain (Flag-Dmrta2 αDM) (mouse) (UniProt A2A9A2)
Test: co-IP

The chains behind the UniProt entries cited, without tags or fusion partners. Where a name states a change or a piece, a line headed by the entry shows the natural chain unless it says otherwise.
UniProt A2A9A2: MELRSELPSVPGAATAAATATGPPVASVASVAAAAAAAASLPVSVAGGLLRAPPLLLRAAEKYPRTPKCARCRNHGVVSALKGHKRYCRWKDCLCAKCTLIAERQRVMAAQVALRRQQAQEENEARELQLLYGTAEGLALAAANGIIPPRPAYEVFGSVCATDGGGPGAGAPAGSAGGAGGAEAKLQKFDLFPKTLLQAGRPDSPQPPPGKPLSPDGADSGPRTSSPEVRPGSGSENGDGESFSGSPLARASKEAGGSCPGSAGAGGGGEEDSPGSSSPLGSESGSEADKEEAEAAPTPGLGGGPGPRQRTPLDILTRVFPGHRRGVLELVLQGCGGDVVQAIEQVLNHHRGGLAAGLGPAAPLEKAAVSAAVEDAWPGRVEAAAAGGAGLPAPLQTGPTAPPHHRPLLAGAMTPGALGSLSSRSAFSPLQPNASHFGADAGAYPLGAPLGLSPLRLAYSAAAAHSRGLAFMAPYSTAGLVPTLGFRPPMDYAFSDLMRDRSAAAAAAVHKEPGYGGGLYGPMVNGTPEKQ

binding: no binding
B1: Zfp423 (pCDNA3-Myc-Zfp423) (protein, UniProt Q80TS5 1-1292)
chain: MSRRKQAKPRSVKVEEGEASDFSLAWDSSVAAAGGLEGEPECDRKTSRALEDRNSVTSQEERNEDDEDVEDESIYTCDHCQQDFESLADLTDHRAHRCPGDGDDDPQLSWVASSPSSKDVASPTQMIGDGCDLGLGEEEGGTGLPYPCQFCDKSFIRLSYLKRHEQIHSDKLPFKCTFCSRLFKHKRSRDRHIKLHTGDKKYHCHECEAAFSRSDHLKIHLKTHSSSKPFKCSVCKRGFSSTSSLQSHMQAHKKNKEHLAKSEKEAKKDDFMCDYCEDTFSQTEELEKHVLTLHPQLSEKADLQCIHCPEVFVDESTLLAHIHQAHANQKHKCPMCPEQFSSVEGVYCHLDSHRQPDSSNHSVSPDPVLGSVASMSSATPDSSASVERGSTPDSTLKPLRGQKKMRDDGQSWPKVVYSCPYCSKRDFTSLAVLEIHLKTIHADKPQQSHTCQICLDSMPTLYNLNEHVRKLHKSHAYPVMQFGNISAFHCNYCPEMFADINSLQEHIRVSHCGPNANPPDGNNAFFCNQCSMGFLTESSLTEHIQQAHCSVGSTKLESPVVQPTQSFMEVYSCPYCTNSPIFGSILKLTKHIKENHKNIPLAHSKKSKAEQSPVSSDVEVSSPKRQRLSGSANSISNGEYPCNQCDLKFSNFESFQTHLKLHLELLLRKQACPQCKEDFDSQESLLQHLTVHYMTTSTHYVCESCDKQFSSVDDLQKHLLDMHTFVLYHCTLCQEVFDSKVSIQVHLAVKHSNEKKMYRCTACNWDFRKEADLQVHVKHSHLGNPAKAHKCIFCGETFSTEVELQCHITTHSKKYNCRFCSKAFHAVILLEKHLREKHCVFDAAAENGTANGVPPTSTKKAEPADLQGMLLKNPEAPNSHEASEDDVDASEPMYGCDICGAAYTMEVLLQNHRLRDHNIRPGEDDGSRKKAEFIKGSHKCNVCSRTFFSENGLREHLQTHRGPAKHYMCPICGERFPSLLTLTEHKVTHSKSLDTGTCRICKMPLQSEEEFIEHCQMHPDLRNSLTGFRCVVCMQTVTSTLELKIHGTFHMQKLAGSSAASSPNGQGLQKLYKCALCLKEFRSKQDLVRLDVNGLPYGLCAGCMARSANGQVGGLAPPEPADRPCAGLRCPECNVKFESAEDLESHMQVDHRDLTPETSGPRKGAQTSPVPRKKTYQCIKCQMTFENEREIQIHVANHMIEEGINHECKLCNQMFDSPAKLLCHLIEHSFEGMGGTFKCPVCFTVFVQANKLQQHIFAVHGQEDKIYDCSQCPQKFFFQTELQNHTMSQHAQ
